Results from PubChem BioAssay AID624291 (National Center for Advancing Translational Sciences (NCATS), 2012).
In all, about 350,000 compounds went through this assay and about 220 (0.063%) were called active. The shares of active, inactive and inconclusive entries below differ from those in the screen. The call rests on the fitted dose curve; in most records, active means well fitted activation curve with a large enough effect; inconclusive means small, poorly fitted or top-dose-only effect; inactive means no such curve, though single readings can be large or run the other way. Potencies of inconclusive entries are doubtful fits and often do not repeat.

Assay: qHTS for Activators of Integrin-Mediated Alleviation for Muscular Dystrophy; further: nearly all actives have a fitted effect of over 60% in size;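 on activation: 100% = response of the positive control SU9516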
Conditions: alpha7betagal myoblasts, beta-gal FDG fluorescence, 48 h; activation: at 38.3 µM (top of the series)
In short: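 Alpha7betagal+/- myoblasts (passage 13) were plated 16-24 hr, then exposed to compounds (1:260 dilution of DMSO stock) for 48 hours at 37C. After MPER lysis, β-galactosidase reporter activity was read as FDG fluorescence (ex 480/em 540) after 30 minutes.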
Potency means the concentration at half of the fitted maximal effect.

activation, inconclusive:
Cc1cc2cc(CN(CC3CCCO3)C(=S)Nc3ccccc3)c(=O)[nH]c2cc1C (stereo not given) -47.2% [activator]

activation, inactive:
O=C(CCN1CCCC1)Nc1cccc(Br)c1 -14%
Cn1nnnc1SCC(=O)Nc1cc(C(C)(C)C)nn1-c1ccccc1 3.25%
CCn1nc(C(=O)OCC(=O)N2CCc3ccccc32)c2ccccc2c1=O 1.97%
CSc1nc2nc(C(F)(F)F)cc(-c3ccccc3)n2n1 14.9%
COc1ccc(NS(=O)(=O)c2ccc(NC(=O)c3ccccc3)cc2)nn1 2.25%
COc1ccc(NC(=O)N2CCc3ccccc3C2)cc1 8.86%
O=C(O)CCCn1cc(NC(=O)COc2ccc([N+](=O)[O-])cc2)cn1 -24.1%
CC1CCCCC1NC(=S)Nc1ccc(SC(F)F)cc1 (stereo not given) -60.1%
COc1cccc(NC(=O)Nc2nc(SC(C)(C)C)ns2)c1 -60.5%
Clc1cccc(Cl)c1CO/N=C/c1c(-c2ccccc2)nc2n1CCS2 14.5%
CC(C)c1ccc(CNc2ccc3c(c2)ncn3C)cc1 -34.4%
Cc1ccc2nc(-c3ccc(-c4ccccn4)s3)cn2c1 -12.8%
Cc1cc(C)cc(N=Cc2c(O)c3ccccc3oc2=O)c1 2.45%
C=CCn1c(=O)c2ccccc2n2c(=S)[nH]nc12 6.28%
COc1ccc(OCC(=O)NNC(=S)NC(=O)C2CC2)cc1 -7.71%

Potency, inconclusive:
CCOc1cccc(-c2cc(C(=O)Nc3ccon3)c3ccccc3n2)c1 5.01 µM [activator, single point]
Cc1ccc(C)c(NC(=O)CCC(=O)NN=C2CCCC2)c1 2.82 µM [activator, partial curve, poor fit]
O=c1cc2ncc(-c3[nH]ncc3[N+](=O)[O-])cn2[nH]1 2.24 µM [activator, partial curve, poor fit]
CC(C)(C)c1ccc(CS(=O)(=O)CC(O)CN2CCCC2=O)cc1 (stereo not given) 5.01 µM [activator, single point]
COC(=O)c1cc(S(=O)(=O)NCc2ccccc2OC)cn1C 5.01 µM [activator, single point]
CCCN1C(=O)c2ccccc2NC1c1ccc(OC)c(CSc2ccccn2)c1 (stereo not given) 12.6 µM [activator, single point]
CCC(OC(=O)c1nsc(Cl)c1Cl)C(=O)NC(C)(C)C (stereo not given) 0.501 µM [activator, full curve, poor fit]
COC(=O)c1ccc(CNC(=O)c2coc3ccccc3c2=O)cc1 5.01 µM [activator, single point]
CC(=O)Nc1ccc(S(=O)(=O)N(C)CC(=O)NNC(=O)c2cccs2)cc1 31.6 µM [activator, partial curve, poor fit]
CC(NC(=O)c1cccc(S(=O)(=O)N(C)C)c1)C1CC2CCC1C2 (stereo not given) 2.82 µM [activator, single point]
O=C(CN1C(=O)c2ccccc2C1=O)Nc1ccccc1C(=O)N1CCCC1 28.2 µM [activator, single point]
COC(=O)CSc1ncc(S(=O)(=O)c2ccccc2)c(=O)[nH]1 1.58 µM [activator, partial curve, poor fit]
O=C(O)CCC(=O)NNC(=O)c1ccc(-c2ccccc2)cc1 0.355 µM [activator, full curve, poor fit]
C/C(=N\NC(=O)c1sccc1C)c1ccncc1 5.01 µM [activator, single point]
CC(C)(C)N1CCC1CN (stereo not given) 15.8 µM [activator, single point]
COc1ccc(/C(=N\Nc2ccccc2C(=O)O)c2ccccc2)cc1 2.51 µM [activator, single point]
CCC(C)N(C(=O)CSc1nnc2ccccn12)C1CCS(=O)(=O)C1 (stereo not given) 5.01 µM [activator, single point]
COc1ccc(OC)c(C(C(=O)NC2CCCCC2)N(C(=O)c2snc(C(N)=O)c2N)c2ccccc2OC)c1 (stereo not given) 5.01 µM [activator, single point]
CSc1ncc(C(=O)Nc2ccccc2C)c(C)n1 0.447 µM [activator, full curve, poor fit]
CCCC(=O)NC1CCCc2c1cnn2-c1ccc(C)c(C)c1 (stereo not given) 28.2 µM [activator, single point]
COCCN(C(=O)c1sc2ccccc2c1Cl)c1c(N)n(CC(C)C)c(=O)[nH]c1=O 14.1 µM [activator, partial curve, poor fit]
Cc1ccc(NS(=O)(=O)c2ccc(-c3ccc(=O)[nH]n3)o2)c(C)c1 0.501 µM [activator, full curve, poor fit]
O=C(NC12CC3CC(CC(C3)C1)C2)c1ccc([N+](=O)[O-])cc1 7.08 µM [activator, partial curve, poor fit]
COc1cccc(NC(=O)CNC(=O)[C@@H]2Cc3ccccc3CN2C(=O)OC(C)(C)C)c1 5.01 µM [activator, single point]
Cc1ccc(S(=O)(=O)NCC(=O)OCC(=O)c2c(N)n(C)c(=O)n(C)c2=O)cc1 0.398 µM [activator, partial curve, poor fit]
O=C(c1ccccc1OC(F)F)N1CCN(S(=O)(=O)c2ccc3c(c2)OCCCO3)CC1 12.6 µM [activator, single point]
COc1ccc2[nH]c3c(=O)n(Cc4ccc(C(=O)N5CCCCCC5)cc4)c(=S)[nH]c3c2c1 28.2 µM [activator, single point]
COc1ccc(CCNC(=O)c2cc3c(=O)n(C)c4ccccc4c3n2C)c(OC)c1 5.01 µM [activator, single point]
CN1CCC(NC(=O)c2cccc(Oc3ccccc3)c2)CC1 5.01 µM [activator, single point]

Reprinted from the listing for reference:
Potency, inconclusive:
COc1ccc(/C(=N\Nc2ccccc2C(=O)O)c2ccccc2)cc1 2.51 µM [activator, single point]
CCC(C)N(C(=O)CSc1nnc2ccccn12)C1CCS(=O)(=O)C1 (stereo not given) 5.01 µM [activator, single point]
